Where “and” joins values, the source holds several entries; their conditions need not be identical. Equal entries are not always repeated. Hit rate of the full screen: of about 360,000 compounds, about 7,500 (2.1%) were called active. Inconclusive results, whose numbers are uncertain, are shown with a selection of clear calls. Calls come from the whole dose curve; as a rule, active = well fitted inhibition curve with a large enough effect; inconclusive = small, poorly fitted or top-dose-only effect, or effect the other way; inactive = flat fitted curve, though single readings scatter. Potencies beside an inconclusive call are fits to weak or partial responses and may not hold up.
Assay: Nrf2 qHTS screen for inhibitors; note: nearly all actives have a fitted effect of over 60% in size
Details: A549 ARE-Fluc reporter, luciferase luminescence, 18-24 h; series mostly up to 46 µM
Method in brief: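 Reporter: ARE-Fluc in A549. Exposure: 18-24 h, 37 °C, 5% CO2, 5% FBS OPTI-MEM. Readouts: fluorescent cytotoxicity (CellTiter-Fluor), then luminescent Nrf2 signal after BugLite.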
Potency is the fitted concentration of half-maximal effect.

Row | SMILES | Potency
1 | O=C(NCCCN1CCCCC1)c1ccc2c(c1)sc1nc(-c3ccc(F)cc3)cn12 | inconclusive: 29.1 µM [activator, single point]
2 | O=C(CNC(=O)c1cccc(Cl)c1)Nc1ccc(F)c(F)c1F | inconclusive: 0.103 µM [falling, full curve, poor fit]
3 | COc1ccc(Br)cc1CN(C)C(=O)c1ccccc1SCC(=O)N1CCCC1 | inactive
4 | CCc1c(C)sc(NC(=O)CN2CCN(C(=O)c3ccco3)CC2)c1C(=O)OC | inconclusive: 14.6 µM [falling, partial curve, poor fit]
5 | O=C(Nc1ccccc1C(=O)NCc1cccnc1)c1ccccc1F | inactive
6 | COc1cc(NC(N)=S)c(OC)cc1Cl | inconclusive: 29.1 µM [falling, single point]
7 | CC(C)N1CC=C2C(C#N)=C(N)C(C#N)(C#N)C(c3ccccc3)C2C1 (stereo not drawn) | inconclusive: 14.1 µM [falling, single point]
8 | Cc1ccc(NC(=O)CCCN2C(=O)COc3ccc(C)cc32)c(C)c1 | inconclusive: 29.1 µM [activator, single point]
9 | O=C(Nc1ccc(N2CCCC2)c(Cl)c1)c1cccnc1 | inconclusive: 0.92 µM [activator, full curve]
10 | O=S(=O)(Nc1ccc(OC(F)(F)F)cc1)c1cccc2nonc12 | inconclusive: 16.4 µM [falling, single point]
11 | Cc1ccc(NC(=O)C(=O)NCCN2CCN(Cc3ccc([N+](=O)[O-])cc3)CC2)cc1 | inconclusive: 7.31 µM [falling, partial curve, poor fit]
12 | COc1ccc(OC(=O)CSc2nnc(-c3ccc(F)cc3)o2)cc1 | inconclusive: 29.1 µM [activator, single point]
13 | Cn1c(CCN2CCCCC2)nc2cc(NC(=O)Nc3ccccc3)ccc21 | inconclusive: 23.1 µM [activator, partial curve, poor fit]
14 | C/C(=N\Nc1nc2ccccc2[nH]1)c1cccs1 | inconclusive: 4.11 µM [activator, partial curve]
15 | Cc1ccccc1C(=O)N1CCC(C(=O)N(C)CC(=O)Nc2cccc(F)c2)CC1 | inconclusive: 29.1 µM [falling, single point]
16 | CCOC(=O)c1sc(N/N=C/c2cccc(C)c2)nc1C | inconclusive: 25.9 µM [activator, partial curve, poor fit]
17 | Cc1cc(C)cc(NC(=S)N=Nc2c(O)n(C)c3ccc(S(=O)(=O)N4CCOCC4)cc23)c1 | inconclusive: 2.31 µM [falling, full curve]
18 | CC(C)(C)OC(=O)N1CCC(c2cc(-c3cccs3)n[nH]2)CC1 | inconclusive: 23.1 µM [falling, partial curve, poor fit]
19 | Cc1ccc(C(=O)N2CCN=C2SCc2ccc([N+](=O)[O-])cc2)cc1 | inconclusive: 0.0065 µM [falling, full curve, poor fit]
20 | CC(=O)Nc1ccc(OCc2ccc3c(c2)OCO3)cc1 | inconclusive: 4.11 µM [activator, full curve]
21 | O=c1[nH]c(C2CCN(S(=O)(=O)c3ccc4c(c3)OCCO4)CC2)nc2c1nnn2Cc1ccc(F)cc1 | inconclusive: 29.1 µM [activator, single point]

Row | SMILES | Potency
22 | COc1cc(-c2cc(C(=O)Nc3ccccc3N3CCOCC3)c3ccccc3n2)cc(OC)c1OC | inconclusive: 16.4 µM [falling, single point]
23 | Nc1c(C(=O)NCc2ccccc2)sc2nc(N3CCOCC3)c3c(c12)CCCC3 | inconclusive: 29.1 µM [falling, single point]
24 | Fc1cccc(CSc2ncnc3c2ncn3C2CCCCO2)c1 (stereo not drawn) | inconclusive: 2.59 µM [activator, full curve]
25 | O=C(COc1ccccc1)NCC(c1ccco1)N1CCN(c2ccc(F)cc2)CC1 (stereo not drawn) | inconclusive: 20.6 µM [falling, single point]
26 | O=C(Nc1ccc2oc(-c3ccccc3)nc2c1)c1ccc2c(c1)OCCO2 | active: 9.2 µM
27 | O=C(O)c1ccc2c(c1)ncn2C1CCCCC1 | inconclusive: 1.3 µM [falling, full curve]
28 | CNc1cccc(S(=O)(=O)N2CCN(S(=O)(=O)c3ccc4c(c3)OCCO4)CC2)c1 | inactive
29 | CC(=O)c1ccc(OCC(=O)c2cc(C)n(-c3ccc4c(c3)OCO4)c2C)cc1 | inconclusive: 23.1 µM [falling, partial curve, poor fit]
30 | CCC(C)NC(=O)CSc1nnc(-c2c[nH]c3ccccc23)o1 (stereo not drawn) | inconclusive: 29.1 µM [activator, single point]
31 | Fc1ccc(-n2cc(CNCCc3cccnc3)c(-c3ccccc3Cl)n2)cc1 | inconclusive: 23.1 µM [falling, partial curve, poor fit]
32 | O=C(NC(=S)Nc1ccc(Cl)cn1)C12CC3CC(CC(C3)C1)C2 | inconclusive: 8.2 µM [activator, partial curve, poor fit]
33 | NC(=O)C1CCN(C(=O)CN(c2cccc(Cl)c2)S(=O)(=O)c2ccccc2)CC1 | inconclusive: 29.1 µM [activator, partial curve, poor fit]
34 | CCOc1ccc(NC(=O)N2CCC(C(=O)c3ccc(F)cc3)CC2)cc1 | inconclusive: 18.4 µM [falling, partial curve, poor fit]
35 | CN1CCN(C(=O)C2=C[C@H](c3ccccc3)C[C@H](OCc3ccc(CO)cc3)O2)CC1 | inactive
36 | N=c1c2cn[nH]c2nc(SCC(=O)c2ccc(Br)cc2)n1-c1ccc(Br)cc1 | inactive
37 | Cc1ccc(CNC(=O)CN2C(=O)CSc3ccc(S(=O)(=O)N4CCCC4)cc32)cc1 | inconclusive: 29.1 µM [activator, single point]
38 | Cc1cc2oc(=O)cc(CSc3nc(N)cc(N)n3)c2cc1C(C)C | inactive
39 | CCCCCn1c(=O)c(Cc2ccccc2)c(O)c2ccccc21 | inactive
40 | NC(=O)c1ccc(NS(=O)(=O)c2ccc3ccccc3c2)cc1 | inconclusive: 4.11 µM [falling, single point]
41 | CCCCn1nc(C(=O)NCC(c2cccs2)N2CCOCC2)c2ccccc2c1=O (stereo not drawn) | inactive
42 | CNC(=S)N1N=C(c2ccc(OC)cc2)CC1c1ccc(Cl)cc1Cl (stereo not drawn) | inactive

Given with tabs: part of the list above
Row	SMILES	Potency
27	O=C(O)c1ccc2c(c1)ncn2C1CCCCC1	inconclusive: 1.3 µM [falling, full curve]
36	N=c1c2cn[nH]c2nc(SCC(=O)c2ccc(Br)cc2)n1-c1ccc(Br)cc1	inactive

Another view of part of the listing above:
Fc1ccc(-n2cc(CNCCc3cccnc3)c(-c3ccccc3Cl)n2)cc1
  Potency: inconclusive: 23.1 µM [falling, partial curve, poor fit]
O=C(NC(=S)Nc1ccc(Cl)cn1)C12CC3CC(CC(C3)C1)C2
  Potency: inconclusive: 8.2 µM [activator, partial curve, poor fit]

More records.

Row | SMILES | Potency
43 | Cc1ccc(Cl)c(OCC(=O)NCC(c2cccs2)N2CCOCC2)c1 (stereo not drawn) | inconclusive: 20.6 µM [falling, single point]
44 | COc1ccc2nc3sc(C(=O)N4CCN(c5ccc(F)cc5)CC4)cc3cc2c1 | inactive
45 | CCC/C(=N\NC(=O)c1csc(C)c1C)c1cccs1 | inconclusive: 0.82 µM [activator, partial curve, poor fit]
46 | O=C(/C=C/c1ccco1)NCC1COc2ccccc2O1 (stereo not drawn) | inactive
47 | O=C(CN1C(=O)C2(SCC(=O)N2c2ccccc2)c2ccccc21)NCCc1ccccc1 (stereo not drawn) | inconclusive: 29.1 µM [activator, single point]
48 | Cc1ccc(-c2nc3cc(N)ccc3o2)c(C)c1 | inconclusive: 2.91 µM [activator, full curve] and inconclusive: 5.17 µM [activator, partial curve]
49 | COC(=O)N/N=C\c1c(C)[nH]n(-c2ccccc2)c1=O | inconclusive: 20.6 µM [falling, single point]
50 | COC1=C(Nc2ccccc2OC)C(=O)c2ccccc2C1=O | inconclusive: 0.184 µM [falling, full curve, poor fit]
51 | O=C(c1cnn(-c2ccc(Cl)cc2)c1)c1ccccc1O | inconclusive: 18.4 µM [activator, single point]
52 | COc1cc(C)ccc1OCCSc1nc2ccc(NC(=O)c3cccs3)cc2s1 | inconclusive: 14.6 µM [falling, single point]
53 | CC(=O)c1ccc(N2CCN(C(=O)c3ccc4c(=O)n(-c5ccccc5)c(=O)[nH]c4c3)CC2)cc1 | inconclusive: 29.1 µM [falling, single point]
54 | COc1ccc(C(=O)N(Cc2ccccc2)Cc2ccc(OC)c(COc3ccc(NC(C)=O)cc3)c2)cc1 | inconclusive: 20.6 µM [falling, single point]
55 | CCN1C(=O)[C@@H]2[C@@H](c3ccc(-c4ccccc4)cc3)N3CCCC[C@@]3(C(=O)OC)[C@@H]2C1=O | inconclusive: 25.9 µM [falling, single point]
56 | COc1ccc(CCNC(=O)c2ccc(-c3ccc([N+](=O)[O-])cc3Cl)o2)cc1OC | inconclusive: 20.6 µM [falling, partial curve, poor fit]
57 | COc1ccc(-c2noc(CN(C(=O)Cc3ccc(C)cc3)C(C)C)n2)cc1 | inconclusive: 20.6 µM [falling, single point]
58 | COc1ccc(Nc2ncnc3ccccc23)cc1 | inactive
59 | CN(CCOc1ccc(Cl)cc1)C(=O)C1CCN(C(=O)c2ccc(F)cc2)CC1 | inconclusive: 4.61 µM [falling, partial curve, poor fit]
60 | CCOc1cc(N2CCOCC2)c(OCC)cc1NC(=O)c1cc(C)nc2ccccc12 | inconclusive: 18.4 µM [falling, single point]
61 | Cc1ccc(C(=O)NCc2ccc(N3CCN(C(=O)OC(C)(C)C)CC3)cc2)cc1 | inactive
62 | COc1cc([C@@H]2c3cc4c(cc3[C@@H](O)[C@H]3COC(=O)[C@H]23)OCO4)cc(OC)c1O[Si](C)(C)C(C)(C)C | inconclusive: 18.4 µM [falling, single point]
63 | CCN(C(=O)c1ccc(S(=O)(=O)N(C)C)cc1)C(C)C(=O)Nc1ccc(C)cc1 (stereo not drawn) | inconclusive: 16.4 µM [falling, single point]

From PubChem BioAssay AID504444 (National Center for Advancing Translational Sciences (NCATS), 2011)
